Results taken from the supplement of paper PMC7661543.
± gives the standard deviation of the averaged measurements. The effect of the compound repeats well; differences between the knockouts mostly do not.

Test system: HCC-38
Experiment: relative cell number vs DMSO control (72 h) (% of DMSO); higher = less growth inhibition (more cells)
Method: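 QMAP-Seq: a pool of 5 breast cancer cell lines (ZR-75-1, SKBR3, HCC-38, MDA-MB-231, BT-20), each carrying 12 doxycycline-inducible Cas9 sgRNA perturbations (11 knockouts plus non-targeting sgNT), was treated with compounds for 72 h at four 10-fold doses (10 nM-10 uM or 1 nM-1 uM range). Barcodes were amplified and sequenced, and cell number was interpolated from 293T spike-in standard curves. The result is expressed as % of the median of DMSO wells. Two biological replicates.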

CC(=O)O[C@H]1C(=O)[C@@]2(C)[C@H]([C@H](OC(=O)c3ccccc3)[C@]3(O)C[C@H](OC(=O)[C@H](O)[C@@H](NC(=O)c4ccccc4)c4ccccc4)C(C)=C1C3(C)C)[C@]1(OC(C)=O)CO[C@@H]1C[C@@H]2O [Paclitaxel]
Details	relative cell number
sgRNA knockout: sgATF3, 10 nM	31.5 ± 1.6
sgRNA knockout: sgATF3, 100 nM	16.7 ± 7.7
sgRNA knockout: sgATF3, 1000 nM	20.4 ± 3.2
sgRNA knockout: sgATF3, 10000 nM	23.9 ± 0.32
sgRNA knockout: sgATF4, 10 nM	31 ± 1.2
sgRNA knockout: sgATF4, 100 nM	13.6 ± 4.3
sgRNA knockout: sgATF4, 1000 nM	18.7 ± 0.58
sgRNA knockout: sgATF4, 10000 nM	20.82 ± 0.024
sgRNA knockout: sgATF6, 10 nM	29.8 ± 4.6
sgRNA knockout: sgATF6, 100 nM	17.5 ± 11
sgRNA knockout: sgATF6, 1000 nM	19.9 ± 3.1
sgRNA knockout: sgATF6, 10000 nM	35 ± 4.5
sgRNA knockout: sgATG7, 10 nM	31.9 ± 0.73
sgRNA knockout: sgATG7, 100 nM	14 ± 2.1
sgRNA knockout: sgATG7, 1000 nM	18.1 ± 5.5
sgRNA knockout: sgATG7, 10000 nM	24.07 ± 0.1
sgRNA knockout: sgERN1, 10 nM	31.26 ± 0.15
sgRNA knockout: sgERN1, 100 nM	17.7 ± 6.8
sgRNA knockout: sgERN1, 1000 nM	22.9 ± 11
sgRNA knockout: sgERN1, 10000 nM	25.8 ± 1.5
sgRNA knockout: sgHSF1, 10 nM	30.4 ± 7.3
sgRNA knockout: sgHSF1, 100 nM	19.6 ± 12
sgRNA knockout: sgHSF1, 1000 nM	14.7 ± 3
sgRNA knockout: sgHSF1, 10000 nM	35.5 ± 0.85
sgRNA knockout: sgHSF2, 10 nM	29.7 ± 8.6
sgRNA knockout: sgHSF2, 100 nM	23 ± 7.7
sgRNA knockout: sgHSF2, 1000 nM	19.3 ± 7.4
sgRNA knockout: sgHSF2, 10000 nM	27.5 ± 5.8
sgRNA knockout: sgKEAP1, 10 nM	38.4 ± 10
sgRNA knockout: sgKEAP1, 100 nM	18.2 ± 5.9
sgRNA knockout: sgKEAP1, 1000 nM	20.2 ± 1.1
sgRNA knockout: sgKEAP1, 10000 nM	33.9 ± 1.4
sgRNA knockout: sgNFE2L2, 10 nM	32.3 ± 5.3
sgRNA knockout: sgNFE2L2, 100 nM	12.6 ± 3.7
sgRNA knockout: sgNFE2L2, 1000 nM	16.5 ± 1.4
sgRNA knockout: sgNFE2L2, 10000 nM	20.3 ± 2.8
sgRNA knockout: sgSLC35F2, 10 nM	30.1 ± 0.83
sgRNA knockout: sgSLC35F2, 100 nM	13.2 ± 0.97
sgRNA knockout: sgSLC35F2, 1000 nM	21.1 ± 0.69
sgRNA knockout: sgSLC35F2, 10000 nM	22.4 ± 4.8
sgRNA knockout: sgXBP1, 10 nM	28.2 ± 2.6
sgRNA knockout: sgXBP1, 100 nM	15.8 ± 5.3
sgRNA knockout: sgXBP1, 1000 nM	17.2 ± 5.4
sgRNA knockout: sgXBP1, 10000 nM	25.2 ± 4.2

N#Cc1ccc(C(c2ccc(C#N)cc2)n2cncn2)cc1 [Letrozole]
Details	relative cell number
sgRNA knockout: sgATF3, 1 nM	99.5 ± 4.7
sgRNA knockout: sgATF3, 10 nM	94.3 ± 17
sgRNA knockout: sgATF3, 100 nM	106 ± 1.9
sgRNA knockout: sgATF3, 1000 nM	97 ± 2.9
sgRNA knockout: sgATF4, 1 nM	97.6 ± 2
sgRNA knockout: sgATF4, 10 nM	118 ± 15
sgRNA knockout: sgATF4, 100 nM	114 ± 21
sgRNA knockout: sgATF4, 1000 nM	86.3 ± 5.3
sgRNA knockout: sgATF6, 1 nM	91 ± 12
sgRNA knockout: sgATF6, 10 nM	90.9 ± 6.6
sgRNA knockout: sgATF6, 100 nM	134 ± 18
sgRNA knockout: sgATF6, 1000 nM	107 ± 2.9
sgRNA knockout: sgATG7, 1 nM	92.9 ± 15
sgRNA knockout: sgATG7, 10 nM	103 ± 1.6
sgRNA knockout: sgATG7, 100 nM	109 ± 2.8
sgRNA knockout: sgATG7, 1000 nM	97.1 ± 8.9
sgRNA knockout: sgERN1, 1 nM	101 ± 9.6
sgRNA knockout: sgERN1, 10 nM	100 ± 3.8
sgRNA knockout: sgERN1, 100 nM	107 ± 6.7
sgRNA knockout: sgERN1, 1000 nM	99.3 ± 1.7
sgRNA knockout: sgHSF1, 1 nM	108 ± 36
sgRNA knockout: sgHSF1, 10 nM	89.3 ± 25
sgRNA knockout: sgHSF1, 100 nM	106 ± 12
sgRNA knockout: sgHSF1, 1000 nM	108 ± 5.6
sgRNA knockout: sgHSF2, 1 nM	107 ± 5.1
sgRNA knockout: sgHSF2, 10 nM	95.9 ± 5.3
sgRNA knockout: sgHSF2, 100 nM	122 ± 14
sgRNA knockout: sgHSF2, 1000 nM	94.4 ± 5.3
sgRNA knockout: sgKEAP1, 1 nM	110 ± 19
sgRNA knockout: sgKEAP1, 10 nM	95.9 ± 6
sgRNA knockout: sgKEAP1, 100 nM	95.6 ± 11
sgRNA knockout: sgKEAP1, 1000 nM	101 ± 3.1
sgRNA knockout: sgNFE2L2, 1 nM	90.6 ± 3.8
sgRNA knockout: sgNFE2L2, 10 nM	105 ± 22
sgRNA knockout: sgNFE2L2, 100 nM	118 ± 13
sgRNA knockout: sgNFE2L2, 1000 nM	88.7 ± 12
sgRNA knockout: sgSLC35F2, 1 nM	97.1 ± 10
sgRNA knockout: sgSLC35F2, 10 nM	113 ± 9.7
sgRNA knockout: sgSLC35F2, 100 nM	115 ± 9.3
sgRNA knockout: sgSLC35F2, 1000 nM	102 ± 2.6
sgRNA knockout: sgXBP1, 1 nM	97.6 ± 4
sgRNA knockout: sgXBP1, 10 nM	101.3 ± 0.61
sgRNA knockout: sgXBP1, 100 nM	119 ± 17
sgRNA knockout: sgXBP1, 1000 nM	89.6 ± 4.5
